For at least one compound, name, drawing or mass did not settle the structure.
What was measured:
[1] = HPLC analysis of 0.45 micron filter filtrate of BPN-20 in 1% PVA; format: physicochemical; settings: BPN-20 bottom material through 0.45 Nylon 66 filter
Protocol: Procedure: • 1. Write A, B, C, and D on each of four 0.45 micron 47 mm Nylon 66 filters with a soft pencil. • 2. Weigh each of the filters. • 3. Draw Methanol through Filter A and set on a paper towel to dry. • 4. Weigh about 10 mg of aminoflavone onto Filter B and get an accurate weight. • 5. Draw 100 mL of Methanol through Filter B and bring to 100 mL in a 100 mL vol flask • 6. Set Filter B aside to dry on a paper towel. • 7. Draw 20 mL of 1% PVA through Filter C and set on a paper towel to dry. • Save the Filtrate for HPLC Assay • 8. Draw 20 mL of BPN-20 yellow ppt through Filter D and set on a paper towel to dry. • Save the Filtrate for HPLC Assay • 9. Place all four filters in the vacuum oven for 1 hour at 60 C. Then weigh the filters. • 10. Draw 100 mL of Methanol through Filters C and D. Bring to 100 mL with Methanol. • 11. Dry, vacuum oven, and get an accurate weight on filters C and D.

[2] = system: CaKi-1 and A498 renal, MCF-7 breast and OVAR-5 ovarian cancer cell lines; settings: particularly prominent against CaKi-1, A498, MCF-7, OVAR-5; cited from earlier work
[3] = system: renal cancer xenograft models; settings: in vivo; cited from earlier work

Cc1c(F)c(N)c2c(=O)cc(-c3ccc(N)c(F)c3)oc2c1F [Sample 5, Aminoflavone]
aminoflavone in filtrate [1]: 0.030 mg/100 mL | activity in NCI's 60-cell line screen [2]: good differential activity | effect of treatment in renal cancer xenograft models [3]: complete regressions and/or tumor-free animals

— patent US8703727B2, “Nanotechnology formulation of poorly soluble compounds” (Aphios Corporation, priority 2010, dated 2014)
